Assay results reported in publication PMC2576351.
No constants are given. Whether binding was seen depends on the method and setting. Binding seen in cells or lysates may run through a third protein. Some binding calls cover weakened binding; strength is not graded here.

Target: S-Tax (HTLV-1) (UniProt P03409)
Test: pull-down; S-Tax expressed in 293T by transient transfection, no nuclear extracts added; lysate purified on S-protein agarose beads; SDS-PAGE and immunoblot with anti-DNA-PKcs; S-GFP as control

For “DNA-dependent Protein Kinase catalytic subunit (DNA-PKcs) (from UniProt P78527 1-4128)”, the binding was “binds”.
